Laboratory results: PubChem BioAssay AID1259308 (NCATS, 2017)
This is an unselected part of about 59,000 deposited reagents. Over the whole deposit, about 1,510 (2.6%) got an active call. 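Calls use total luciferase alone and ignore viability, so some active siRNAs may act by altering cell number.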 Entries without a mark were called inactive. The numbers tell different reagents against one gene apart. Not all columns of the deposit are shown.

Assay: 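Knock-downs that increase output of a recombinant reporter protein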 (primary screen)
System: human HEK293 embryonic kidney cells stably expressing firefly luciferase (HEK-CMV-Luc2-Hygro)
Knock-down reagent: single siRNA against human genes, 0.8 pmol siRNA per well
Time to read-out: 72 h
Measurement: 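Luciferase light (ONE-Glo) measured on one replicate plate set and viability (CellTiter-Glo) on the other, scaled to a negative control siRNA, with robust z-scores and luciferase per cell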
Direction: total luciferase, z-score: higher = more reporter protein produced
Hit rule: 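Active when the median/MAD z-score for overall luciferase is greater than 3; a gene was taken forward for validation with new siRNAs if at least two of its three siRNAs passed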
Calls: active = raised luciferase; inactive = no rise

| gene knocked down | siRNA no. | total luciferase, z-score |
| --- | --- | --- |
| RELB | 1 | 1.64 |
| RELB | 2 | -0.298 |
| RELB | 3 | -0.361 |
| ZNF197 | 1 | -0.319 |
| ZNF197 | 2 | -0.893 |
| ZNF197 | 3 | 0.387 |
| THAP1 | 1 | -0.581 |
| THAP1 | 2 | -0.109 |
| THAP1 | 3 | 0.385 |
| RANBP3 | 1 | -1.08 |
| RANBP3 | 2 | -1.31 |
| RANBP3 | 3 | 0.814 |
| TMPRSS11D | 1 | 0.363 |
| TMPRSS11D | 2 | 0.647 |
| TMPRSS11D | 3 | -0.51 |
| SARM1 | 1 | 0.6 |
| SARM1 | 2 | -0.361 |
| SARM1 | 3 | 0.776 |
| CCDC85A | 1 | 1.26 |
| CCDC85A | 2 | -0.214 |
| CCDC85A | 3 | 0.491 |
| DOC2A | 1 | 0.0839 |
| DOC2A | 2 | -0.85 |
| DOC2A | 3 | 4.16 (active) |
| RPSA | 1 | 1.16 |
| RPSA | 2 | -0.304 |
| RPSA | 3 | 0.309 |
| GPR139 | 1 | 0.237 |
| GPR139 | 2 | -1.11 |
| GPR139 | 3 | 1.42 |
| PBRM1 | 1 | 0.161 |
| PBRM1 | 2 | 0.0971 |
| PBRM1 | 3 | -0.17 |
| GPHA2 | 1 | 3.49 (active) |
| GPHA2 | 2 | 0.189 |
| GPHA2 | 3 | -2.23 |
| TCIM | 1 | -0.167 |
| TCIM | 2 | 0.0491 |
| TCIM | 3 | 1.1 |
| CSTF3 | 1 | -0.129 |
| CSTF3 | 2 | -0.315 |
| CSTF3 | 3 | 1.07 |
| TMEM213 | 1 | -1.87 |
| TMEM213 | 2 | 0.808 |
| TMEM213 | 3 | -0.891 |
| CATSPERD | 1 | 1.07 |
| CATSPERD | 2 | 0.274 |
| CATSPERD | 3 | 0.718 |
| USP4 | 1 | -0.231 |
| USP4 | 2 | -0.8 |
| USP4 | 3 | -0.852 |
| ZNF304 | 1 | -0.24 |
| ZNF304 | 2 | -0.129 |
| ZNF304 | 3 | 0.0803 |
| MEI1 | 1 | -1.96 |
| MEI1 | 2 | 0.00458 |
| MEI1 | 3 | 0.434 |

Sorted by “total luciferase, z-score” (highest first): some entries from above.
| gene knocked down | siRNA no. | total luciferase, z-score |
| --- | --- | --- |
| DOC2A | 3 | 4.16 (active) |
| GPR139 | 3 | 1.42 |
| RPSA | 1 | 1.16 |
| RPSA | 3 | 0.309 |
| GPR139 | 1 | 0.237 |
| DOC2A | 1 | 0.0839 |
| RPSA | 2 | -0.304 |
| DOC2A | 2 | -0.85 |
| GPR139 | 2 | -1.11 |
